Data on 44 compounds can be found in ChEMBL document CHEMBL4513141, “CO-ADD screening of NIH (USA) - Clinical Collection” (2021).

This is one part of the list. Potency and affinity values are given separately.

The assay relates to Acinetobacter baumannii. Conditions: Concentration 20 uM; ASSAY_TEST Inhibition of Bacterial Growth; detection method Absorption (OD600); MEDIA CAMHB; plate type 384well; NBS; CORNING #3640; time 18 hr.
For `O=c1c(O[C@@H]2O[C@H](CO)[C@@H](O)[C@H](O)[C@H]2O)c(-c2ccc(O)c(O)c2)oc2cc(O)cc(O)c12` [ISOQUERCETIN], the Inhibition amounted to 25.15%.

On to `CCCCNc1cc(C(=O)O)cc(S(N)(=O)=O)c1Oc1ccccc1` [BUMETANIDE], for which the Inhibition stood at 31.98%.

The compound `Cl.NC12CC3CC(CC(C3)C1)C2` [AMANTADINE HYDROCHLORIDE] had an Inhibition of 16.01%.

Take `CCC(=C(c1ccccc1)c1ccc(OCCN(C)C)cc1)c1ccccc1`: the Inhibition stood at 8.59%.

Take `CC(=O)O[C@]1(C(C)=O)CC[C@H]2[C@@H]3C[C@H](C)C4=CC(=O)CC[C@]4(C)[C@H]3CC[C@@]21C` [MEDROXYPROGESTERONE ACETATE]: the Inhibition is listed as 28.19%.

Take `C[C@@H]1C[C@H]2[C@@H]3C[C@H](F)C4=CC(=O)C(Cl)=C[C@]4(C)[C@@]3(F)[C@@H](O)C[C@]2(C)[C@@]1(O)C(=O)CO` [HALOMETASONE]: the Inhibition was 11.85%.

Turning to `CC(=O)CCCCn1cnc2c1c(=O)n(C)c(=O)n2C` [LOMIFYLLINE], the Inhibition is 29.93%.

As to `CC(=O)OCC(=O)NCCCOc1cccc(CN2CCCCC2)c1.Cl` [ROXATIDINE ACETATE HYDROCHLORIDE], the Inhibition is 13.84%.

In turn, `CC1(C)S[C@@H]2[C@H](/N=C/N3CCCCCC3)C(=O)N2[C@H]1C(=O)O` [AMDINOCILLIN] yielded an Inhibition of 29.39%.

`Cc1cc2c(s1)Nc1ccccc1N=C2N1CCN(C)CC1` [OLANZAPINE] came in with an Inhibition of 19.99%.

As to `CCN(CC)CCOC(=O)c1ccc(N)cc1.Cl` [PROCAINE HYDROCHLORIDE], the Inhibition was found to be 24.17%.

Turning to `O=C(O)c1cc(/N=N/c2ccc(S(=O)(=O)Nc3ccccn3)cc2)ccc1O` [SULFASALAZINE], the Inhibition was found to be 13.81%.

Compound `COc1ccc(OC)c(C(O)CNC(=O)CN)c1.Cl` (centres undefined) [MIDODRINE HYDROCHLORIDE] showed an Inhibition of 26.31%.

Take `CC(N)C12CC3CC(CC(C3)C1)C2.Cl` (centres undefined) [RIMANTADINE HYDROCHLORIDE]: the Inhibition is given as 23.31%.

In the case of `O=C1c2c(O)cc(O)cc2O[C@H](c2ccc(O)c(O)c2)[C@@H]1O`, the Inhibition was 15.13%.

Consider `CN(C)CCC(c1ccc(Cl)cc1)c1ccccn1.O=C(O)/C=C\C(=O)O` (centres undefined) [CHLORPHENIRAMINE MALEATE], for which the Inhibition came to 7.38%.

As to `NC(Cc1cc(I)c(Oc2ccc(O)c(I)c2)c(I)c1)C(=O)O` (centres undefined) [RATHYRONINE], the Inhibition is listed as 30.68%.

`Cc1ncc([N+](=O)[O-])n1CC(C)O` (centres undefined) [SECNIDAZOLE] returned an Inhibition of 28.53%.

In the case of `Cc1nc2ccccn2c(=O)c1CCN1CCC(C(=O)c2ccc(F)cc2)CC1` [PIRENPERONE], the Inhibition is recorded as 8.81%.

For `CSc1nc2cc(Cl)c(Oc3cccc(Cl)c3Cl)cc2[nH]1` [TRICLABENDAZOLE], the Inhibition came out at 14.42%.

`O=C(CCNNC(=O)c1ccncc1)NCc1ccccc1` [NIALAMIDE] gave an Inhibition of 27.51%.

`NC(=O)c1cnccn1` [PYRAZINAMIDE] registered an Inhibition of 18.65%.

As to `CN1C(=O)CC[C@H]1c1cccnc1` [COTININE], the Inhibition came out at 6.43%.

For the compound `CCCOc1ccc(C(=O)OCCN(CC)CC)cc1N.Cl` [PROPARACAINE HYDROCHLORIDE], the Inhibition is listed as 11.17%.

With `NS(=O)(=O)c1cc2c(cc1C(F)(F)F)NCNS2(=O)=O` [HYDROFLUMETHIAZIDE], the Inhibition is recorded as 30.28%.

In the case of `CN1CCC(=C2c3ccccc3C=Cc3ccccc32)CC1.Cl` [CYPROHEPTADINE HYDROCHLORIDE], the Inhibition amounted to 16.8%.

In the case of `CS(=O)(=O)OCCCCOS(C)(=O)=O` [BUSULFAN], the Inhibition stood at 32.17%.

Turning to `CNCCCC12CCC(c3ccccc31)c1ccccc12.Cl` [MAPROTILINE HYDROCHLORIDE], the Inhibition stood at 20.38%.

In the case of `CC(=O)O.CNC(=N)NCCC[C@H](N)C(=O)O` [TILARGININE ACETATE], the Inhibition amounted to 7.2%.

For `CC(=O)NS(=O)(=O)c1ccc(N)cc1` [SULFACETAMIDE], the Inhibition turned out to be 21.15%.

With `Cc1cn([C@H]2C=C[C@@H](CO)O2)c(=O)[nH]c1=O` [STAVUDINE], the Inhibition turned out to be 24.61%.

`CCN(CC)CC(=O)Nc1c(C)cccc1C` [LIDOCAINE] came in with an Inhibition of 23.46%.

On to `OCCN(CCO)c1nc(N2CCCCC2)c2nc(N(CCO)CCO)nc(N3CCCCC3)c2n1` [DIPYRIDAMOLE], for which the Inhibition stood at 12.25%.

The compound `COCCCC/C(=N\OCCN)c1ccc(C(F)(F)F)cc1.O=C(O)/C=C\C(=O)O` [FLUVOXAMINE MALEATE] displayed an Inhibition of 21.08%.

With `Nc1nc(Cl)nc2c1ncn2[C@@H]1O[C@H](CO)[C@@H](O)[C@H]1O`, the Inhibition was found to be 9.97%.

Regarding `O=c1c(O[C@@H]2O[C@H](CO)[C@H](O)[C@H](O)[C@H]2O)c(-c2ccc(O)c(O)c2)oc2cc(O)cc(O)c12` [HYPEROSIDE], the Inhibition was 28.71%.

`C[C@]12CC[C@@H]3c4ccc(OS(=O)(=O)[O-])cc4CC[C@H]3[C@@H]1CCC2=O.[Na+]` [ESTRONE SODIUM SULFATE]: the Inhibition turned out to be 14.02%.

As to `CC(C)[N+](C)(CCOC(=O)C1c2ccccc2Oc2ccccc21)C(C)C.[Br-]` [PROPANTHELINE BROMIDE], the Inhibition is reported as 15.49%.

For the compound `CCOC(=O)[C@H](CCc1ccccc1)N[C@@H](C)C(=O)N1Cc2ccccc2C[C@H]1C(=O)O.Cl` [QUINAPRIL HYDROCHLORIDE], the Inhibition amounted to 16.28%.

Compound `C[C@@H](O)[C@H]1C(=O)N2C(C(=O)O)=C(S[C@@H]3CN[C@H](C(=O)N(C)C)C3)[C@H](C)[C@H]12` [MEROPENEM] gave an Inhibition of 10.36%.

For the compound `CS(=O)(=O)O.Cc1c(O)cccc1C(=O)N[C@@H](CSc1ccccc1)[C@H](O)CN1C[C@H]2CCCC[C@H]2C[C@H]1C(=O)NC(C)(C)C` [NELFINAVIR MESYLATE], the Inhibition worked out at 15.7%.

In turn, `CCC[C@@H]1C[C@@H](C(=O)N[C@@H]([C@H]2O[C@H](SC)[C@H](O)[C@@H](O)[C@H]2O)[C@@H](C)O)N(C)C1.Cl.O` [LINCOMYCIN HYDROCHLORIDE] gave an Inhibition of 17.64%.

In turn, `COc1c2occc2cc2ccc(=O)oc12` [METHOXSALEN] gave an Inhibition of 12.68%.

Turning to `N#Cc1ccc(C(c2ccc(C#N)cc2)n2cncn2)cc1` [LETROZOLE], the Inhibition stood at 22.09%.
